# PubChem BioAssay AID743121 – NCATS | 2013
# Assay: 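Partners whose loss is lethal together with topoisomerase I blockade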 (primary screen)
# System: MDA-MB-231 cells, a human breast cancer line
# Knock-down reagent: single siRNA against human genes, 20 nM siRNA (0.8 pmol per well)
# Duration: 120 h (drug added 48 h after transfection, read 72 h later)
# Treatment: camptothecin 20 nM (about EC30) for 72 h; vehicle 0.1% DMSO in parallel plates
# Measurement: 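CellTiter-Glo ATP signal, scaled to control siRNA as percent viability; sensitisation given as log2 of untreated divided by camptothecin-treated viability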
# Scale: log2 vehicle/camptothecin viability: higher = stronger sensitisation to camptothecin; viability with camptothecin and viability without drug: higher = more viable cells
# Hit rule: 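Active genes have an RSA gene-level p-value below 0.001, computed from the ratios of their separate siRNAs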
# The whole screen tested about 26,000 reagents; this is a part drawn at random. 167 of them (0.63%) were called active. 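Calls are per gene from RSA p-values that are not deposited; an individual active-marked siRNA can sensitise only weakly.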 Unmarked entries are inactive. Reagents against one gene are numbered here.
gene knocked down,reagent no.,log2 vehicle/camptothecin viability,viability with camptothecin (% of control),viability without drug (% of control)
SPEN,1,-0.177,80.2,70.9
SPEN,2,-0.511,107,75.1
SPEN,3,-0.107,24.3,22.5
SPEN,4,-0.198,134,117
DPP3,1,-0.374,57.8,44.6
DPP3,2,-0.312,66.1,53.3
DPP3,3,-0.132,43,39.2
POSTN,1,-0.189,68.5,60.1
POSTN,2,-0.675,102,63.6
POSTN,3,0.448,76.5,104
POSTN,4,-0.214,92.2,79.5
RGS8,1,-0.125,115,105
RGS8,2,-0.301,128,104
RGS8,3,0.0708,61.4,64.5
RGS8,4,-0.0447,94.2,91.3
RPL10,1,0.133,50.2,55
RPL10,2,0.00272,53.9,54
RPL10,3,-0.107,114,105
RPL10,4,-0.458,13.4,9.74
RPL10,5,-0.925,37.8,19.9
RPL10,6,-0.572,33.6,22.6
DYNC1LI2,1,-0.367,111,86.3
DYNC1LI2,2,0.625,21.9,33.7
DYNC1LI2,3,-0.259,78.5,65.6
DYNC1LI2,4,0.0343,92.7,95
CERKL,1,-0.2,93.4,81.3
CERKL,2,-0.215,49,42.2
CERKL,3,-0.424,57,42.5
CERKL,4,-0.603,98.9,65.1

Targets listed so far whose target name begins with D or d (7):
gene knocked down,reagent no.,log2 vehicle/camptothecin viability,viability with camptothecin (% of control),viability without drug (% of control)
DPP3,1,-0.374,57.8,44.6
DPP3,2,-0.312,66.1,53.3
DPP3,3,-0.132,43,39.2
DYNC1LI2,1,-0.367,111,86.3
DYNC1LI2,2,0.625,21.9,33.7
DYNC1LI2,3,-0.259,78.5,65.6
DYNC1LI2,4,0.0343,92.7,95

Next entries follow.
gene knocked down,reagent no.,log2 vehicle/camptothecin viability,viability with camptothecin (% of control),viability without drug (% of control)
KLK7,1,-0.263,63.6,53
KLK7,2,-0.00553,74.8,74.5
KLK7,3,-0.0639,101,96.2
KLK7,4,-0.443,49,36
OPRM1,1,-0.242,21.6,18.2
OPRM1,2,-0.206,105,90.7
OPRM1,3,0.117,54.9,59.5
OPRM1,4,0.0802,67.6,71.5
GNMT,1,1.17,19.1,43
GNMT,2,-0.242,29.7,25.1
GNMT,3,0.379,74.9,97.3
GNMT,4,-0.389,123,93.6
AQP1,1,-0.232,42.2,35.9
AQP1,2,-0.389,21.2,16.2
AQP1,3,-0.739,28.6,17.1
AQP1,4,0.0437,73.6,75.9
DGKZ,1,-0.35 (active),77.2,60.5
DGKZ,2,1.01 (active),35.3,71.3
DGKZ,3,1.03 (active),21.5,44
DGKZ,4,-0.0279 (active),95.7,93.9
GZMB,1,-0.173,73.4,65.1
GZMB,2,-0.129,81.9,74.9
GZMB,3,-0.251,89.2,75
GZMB,4,0.546,67.2,98.1
SENP6,1,-0.26,58.4,48.7
SENP6,2,-0.211,57.2,49.5
SENP6,3,0.033,101,103
SENP6,4,-0.332,77.7,61.7
PCSK7,1,-0.0921,108,102
PCSK7,2,-0.493,12.5,8.86
PCSK7,3,-0.107,54,50.2
PI4KB,1,0.436,37.1,50.2
PI4KB,2,-0.178,101,88.9
PI4KB,3,-0.18,74,65.3
PI4KB,4,-0.377,55.2,42.5
CLCN7,1,0.445,3.42,4.65
CLCN7,2,-0.406,65.1,49.1
CLCN7,3,0.141,88.6,97.8
ITPR3,1,-0.288,58.7,48.1
ITPR3,2,-0.152,94.7,85.3
ITPR3,3,-0.758,76.9,45.5
HIP1,1,-0.477,35.2,25.3
HIP1,2,0.401,32.5,42.9
HIP1,3,-0.285,72.7,59.6
HIP1,4,-0.189,45.6,40
TRA2B,1,-0.476,96.9,69.7
TRA2B,2,0.278,69,83.7
TRA2B,3,-0.512,14.7,10.3
TRA2B,4,-0.424,83.7,62.4
ECE2,1,0.144,82.9,91.6
ECE2,2,-0.158,61.5,55.2
ECE2,3,-0.0129,48.2,47.8
ECE2,4,0.0507,89.2,92.4
ECE2,5,0.412,41.7,55.5
ECE2,6,-0.334,67.8,53.8
PDE3A,1,-0.197,108,94.1
PDE3A,2,-0.171,107,95.5
PDE3A,3,0.239,67.4,79.5
